{
  "source": "patent US20200347131A1",
  "key": {"[1]": {"molecular_target": "cynomolgus monkey LAG-3 on CHO cells (CHO-cynoLAG-3) (cynomolgus monkey)", "assay": "FACS with FITC-labelled antibody on CHO-cynoLAG-3 cells"}, "[2]": {"molecular_target": "cynomolgus monkey LAG-3 on CHO cells (CHO-cynoLAG-3) (cynomolgus monkey)", "assay": "flow cytometry, FITC-labelled antibody on CHO-cynoLAG-3 cells"}},
  "note": "Results are given in words; binding and its absence hold for the method and conditions named. A result given as binding can be weak or reduced; the word gives no strength.",
  "data": [
    {"binder": "humanized antibody AB12T4 (antibody, human IgG4 S228P, kappa, V domains shown) VH: DVQLQESGPGLVKPSQTLSLTCTVTGYSITSFYSWHWIRQFPGKGLEWMGCIQYSGDTDSNPSLKSRITITRDTSENQLFLKLSSVTAADTATYYCARSPYDSDPYYVMDYWGQGTLVTVSS VL: DIVMSQSPDSLAVSLGERITMTCKSSQSLLYSGNQKNYLAWYQQKPGQSPTLLIYWASTRDSGVPDRLTGSGSGTDFTLTISSVQAEDVAVYYCQQYYAYPYTFGQGTKLEIKR", "values": [
      {"measurement": "binding", "setting": "[1]", "result": "binds"},
      {"measurement": "binding", "setting": "[2]", "result": "binds"}
    ]}
  ]
}
